Earlier results, collected in US20240009170A1, “INHIBITION OF GLYCOGEN SYNTHASE KINASE-3 (GSK-3)” (Brown University, priority 2020, published 2024).
For at least one compound, name, drawing or mass did not settle the structure.

Test system: GSK-3
Details: cited from earlier work

SMILES: [Li] [Lithium]
- potency compared with other GSK-3 inhibitors: significant less potent
